This assay is described as follows: qHTS Assay for Lipid Storage Modulators in Drosophila S3 Cells.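 As to cell number change: cells counted by Cell Tracker Red CMTPX staining in the red channel.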 The conditions noted are these: BODIPY lipid droplet fluorescence, 18-24 h; for cell number change: measured here: cell count max response, cells fed with added oleic acid. The essentials:
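Drosophila S3 cells loaded with oleic acid (400 uM, as added) and compounds at several concentrations; lipid droplets imaged by 488-nm laser-scanning cytometry, 500–530 nm intensity and object ratio to cell channel. Percent activity normalized to 20 uM Triacsin C.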

Setting [1] is: measured here: lipid fluorescence (Fed channel) AC50, cells fed with added oleic acid.
[2] abbreviates: measured here: cell number channel AC50, cells fed with added oleic acid.

Some of the results follow. Further columns of the screen follow, without active or inactive calls. Most of these compounds were active or inconclusive in the main read-out, so they are no random draw. Words in brackets tell the shape of the fitted curve; partial curves, single points and poor fits give uncertain potencies.

What is called AC50 is the midpoint of the concentration-response curve, whichever way the signal moves. A low value points to greater potency. Regarding `C#CCOC(=O)C[N+](C)(C)C/C=C/c1ccccc1`, the cell number change is 2.52%. Moreover, the half-maximal activity concentration (AC50) under setting [1] was 20.6 µM [rising, single point].

For the molecule `Oc1c(CN2CCOCC2)cc(-c2ccccc2)cc1CN1CCOCC1`, the cell number change is 18.1%. Further, the concentration at half-maximal activity (AC50) under setting [1] is 20.6 µM [rising, partial curve, poor fit].

For the molecule `COc1ccc(NCN2C(=O)CCC2=O)cc1`, the cell number change is -18.8%. Under setting [1], the AC50 is 29.1 µM [falling, partial curve].

In the case of `COc1ccc(C2Nc3ccccc3C(=O)N2NS(=O)(=O)c2ccc(C)cc2)cc1OC` (stereo not given), the cell number change is 9.52%.

With `O=C(COC(=O)c1cc[n+]([O-])cc1)Nc1cccc(Br)c1`, the AC50 under setting [1] was 29.1 µM [rising, single point].

As for `CC(=O)Nc1ccc(NS(=O)(=O)c2ccc(C)cc2)c([N+](=O)[O-])c1`, the cell number change came to 12.6%. In addition, the AC50 under setting [1] is 0.00517 µM [falling, full curve, poor fit].

On to `CCN(CC)C(=O)Oc1ccccc1NC(C)=O`, for which the cell number change was -30.4%.

As for `COc1cc(NC(=O)[C@H]2CCCN2S(=O)(=O)c2cccc3cccnc23)cc(OC)c1OC`, the cell number change amounted to 11%. The AC50 under setting [1] was 29.1 µM [rising, single point].

On to `Cc1ccc(-c2noc(CCC(=O)NC3CCN(Cc4ccccc4)CC3)n2)cc1`, for which the cell number change was -47.6%. Besides, the half-maximal activity concentration (AC50) under setting [2] is 8.2 µM [falling, partial curve]. Also, the AC50 under setting [1] was 13 µM [falling, partial curve].

As to `CC(=O)c1ccc(S(=O)(=O)N2CCN(C(=O)CCC3CCCC3)CC2)cc1`, the cell number change was -75%. Besides, the half-maximal activity concentration (AC50) under setting [2] was 29.1 µM [falling, single point].

As to `Cc1ccc2nc(N3C(=O)C(O)=C(C(=O)c4ccco4)C3c3ccc(O)cc3)sc2c1` (stereo not given), the cell number change worked out at 14.5%. The AC50 under setting [2] is 0.00411 µM [rising, full curve, poor fit].

Turning to `CC1CCCN(c2c([N+](=O)[O-])c(=O)oc3ccccc23)C1` (stereo not given), the cell number change was -64.9%. The AC50 under setting [2] is 29.1 µM [falling, single point].

Consider `S=c1[nH]nc(COc2ccc(Cl)cc2)n1Cc1ccco1`, for which the cell number change amounted to 5.32%. For the same molecule, the AC50 under setting [2] was 0.13 µM [falling, full curve, poor fit].

For `COc1ccc(S(=O)(=O)N2CCOCC2)cc1NC(=O)CN1CCN(C)CC1`, the cell number change was -32.3%. Besides, the AC50 under setting [2] is 1.3 µM [falling, full curve, poor fit]. Moreover, the AC50 under setting [1] was 20.6 µM [falling, single point].

On to `Cc1cc(C)nc(Sc2ccc([N+](=O)[O-])cc2[N+](=O)[O-])n1`, for which, under setting [1], the AC50 is 13 µM [falling, partial curve].

Take `CCCC1CC(C)(c2csc(Nc3ccc(OCC)cc3)n2)OC1=O` (stereo not given): the cell number change is -45.5%. For the same molecule, the AC50 under setting [2] is 23.1 µM [falling, single point]. For the same molecule, under setting [1], the concentration at half-maximal activity (AC50) was 25.9 µM [falling, single point].

Regarding `O=C(Nc1ccc(Cl)cc1)Nc1ccccc1CC[N+](=O)[O-]`, the cell number change stood at 19.4%.

As to `CN(CCCC(=O)NC1CC(C)(C)NC(C)(C)C1)S(=O)(=O)c1ccc([N+](=O)[O-])cc1`, the cell number change is -39%. Also, under setting [1], the AC50 is 0.058 µM [falling, single point].

For `COCCn1c(SCC(=O)Nc2ccc(C(C)=O)cc2)nnc1-c1ccco1`, the cell number change was 7.5%.

Regarding `COc1ccnc2c1c(=O)n(Cc1ccc(Cl)cc1Cl)c(=O)n2C`, the cell number change was found to be 11%.

Take `O=C(NCc1cccnc1)c1ccc2c(=O)n(CCCN3CCCC3=O)c(=S)[nH]c2c1`: the cell number change was determined as 9.21%. Under setting [1], the concentration at half-maximal activity (AC50) was 4.61 µM [rising, full curve].

As for `Cc1cccc(/C=N/NC(=O)c2ccc(NC(=O)c3ccccc3Cl)cc2)n1`, the cell number change was -9.57%.

`COc1ccccc1CCNC(=O)C(C)n1nc(C)c2c(C)n(-c3ccccc3)nc2c1=O` (stereo not given): the cell number change amounted to 14%.

`Cc1ccc(S(=O)(=O)NCCc2nnc(SCc3cccnc3)n2C)cc1`: the concentration at half-maximal activity (AC50) under setting [1] is 14.6 µM [rising, single point].

As to `Cc1cc2nc3c(=O)n(Cc4ccccc4)c(=O)[nH]c3nc2cc1N`, the half-maximal activity concentration (AC50) under setting [1] was 29.1 µM [falling, single point].

Regarding `Cc1ccc(C(=O)c2sc3nc4c(cc3c2N)CCC4)cc1`, the cell number change is 12.8%. The AC50 under setting [1] is 5.8 µM [rising, partial curve].

For the molecule `Cc1cccc(CNCc2ccccc2)c1`, the cell number change is -33.3%. Also, the half-maximal activity concentration (AC50) under setting [2] was 29.1 µM [falling, single point].

For `NNC(=O)c1sccc1OCc1ccc(Cl)cc1`, the cell number change came to 46%.

Regarding `Cc1ccc(/C(N)=N/OC(=O)C(C)c2ccc([N+](=O)[O-])cc2)cc1` (stereo not given), the cell number change is 33.3%. Besides, the concentration at half-maximal activity (AC50) under setting [2] was 32.6 µM [rising, partial curve, poor fit].

Regarding `O=C(COC(=O)CCN1C(=O)c2ccccc2C1=O)Nc1ccc(S(=O)(=O)N2CCCC2)cc1`, the cell number change stood at 16.6%.

As to `Cc1ccc(C(=O)n2c3ccccc3c3ccccc32)cc1`, the cell number change was 23%. The AC50 under setting [1] was 4.11 µM [falling, partial curve].

On to `O=C(c1cc(-c2ccc(Cl)c(Cl)c2)on1)N1CCCCCC1`, for which the cell number change is 26.2%. Also, the AC50 under setting [1] is 29.1 µM [rising, single point].

For the molecule `COCCNC(=O)c1ccc2snnc2c1`, the cell number change stood at 1.85%. Moreover, the half-maximal activity concentration (AC50) under setting [2] is 0.291 µM [falling, partial curve, poor fit]. Besides, the AC50 under setting [1] is 0.82 µM [falling, single point].

As to `Cc1ccc2nc3sc(C(=O)Nc4ccc(F)cc4)cc3cc2c1`, the cell number change amounted to 37.1%. Under setting [2], the AC50 is 29.1 µM [rising, single point].

In the case of `CC1CCC(C(=O)NC(C(=O)NCCCN2CCOCC2)C(C)C)CC1` (stereo not given), the cell number change was -36.7%. In addition, the concentration at half-maximal activity (AC50) under setting [2] is 0.461 µM [falling, partial curve, poor fit]. For the same molecule, the AC50 under setting [1] is 0.651 µM [falling, single point].

Take `CCn1c(SCC(=O)N(C)Cc2ccc(OC)c(F)c2)nc2cc(S(N)(=O)=O)ccc21`: the cell number change came to 12.9%.

`Cc1ccc2cc(CN(Cc3ccco3)C(=O)c3ccco3)c3nnnn3c2c1`: the cell number change was found to be 11.5%. Besides, the AC50 under setting [1] is 32.6 µM [falling, single point].

For the molecule `O=C(c1cccnc1)N1N=C(C2CC2)CC1(O)C(F)(F)F` (stereo not given), the cell number change turned out to be 32.9%. In addition, under setting [2], the AC50 is 20.6 µM [rising, single point]. For the same molecule, the concentration at half-maximal activity (AC50) under setting [1] is 29.1 µM [rising, single point].

For `COc1cccc(C(C(=O)NC2CCCCC2)N(C(=O)CNC(=O)c2ccco2)c2cccnc2)c1` (stereo not given), the cell number change is 32.6%.

Turning to `Cc1c(/C=N/NC(=O)c2ccc3c(c2)OCO3)cnn1C`, the cell number change was determined as 157%.

On to `Cc1ccc(NC2=NC3(CCCC3)N=C(N)N2)c(C)c1`, for which the cell number change came out at 3.77%. Moreover, the concentration at half-maximal activity (AC50) under setting [1] was 3.66 µM [rising, partial curve, poor fit].

Turning to `O=S(=O)(c1ccc(Br)cc1)c1cnc2ccccc2n1`, the cell number change is -51.6%. Besides, under setting [2], the half-maximal activity concentration (AC50) was 20.6 µM [falling, partial curve, poor fit]. Further, the AC50 under setting [1] is 10.3 µM [falling, partial curve].

Take `C=CCn1c(SCc2ccccc2)nc(O)cc1=O`: the cell number change is 11%. The AC50 under setting [1] is 1.64 µM [falling, single point].

In the case of `Clc1ccc(Oc2nc(N3CCOCC3)nc(N3CCOCC3)n2)cc1`, the cell number change is -19.8%. Besides, the AC50 under setting [1] was 0.92 µM [falling, full curve].

With `CN(C)c1oc(-c2ccc(OCc3ccc(Cl)cc3)cc2)nc1C#N`, the cell number change was found to be 7.57%. Under setting [1], the AC50 was 3.26 µM [rising, partial curve].

On to `N#Cc1c(-c2ccco2)nc(NCC2CCCO2)[nH]c1=O` (stereo not given), for which the cell number change is -12%.

For `COc1ccc(CCNC(=O)CN(C)S(=O)(=O)c2ccc(OC)cc2)cc1`, the cell number change was -6.45%.

With `FC(F)(F)c1ccccc1NC(=S)Nn1cnnc1`, the cell number change worked out at 19.9%.

As to `COc1cc(Nc2cccc[n+]2C)cc(OC)c1OC`, the cell number change was -29.2%. The AC50 under setting [2] is 0.92 µM [falling, partial curve, poor fit].

`Cc1ccccc1Nc1nc(CSc2nnnn2-c2ccccc2)cs1`: the cell number change worked out at 55.5%. The half-maximal activity concentration (AC50) under setting [2] was 0.366 µM [rising, full curve]. Further, the AC50 under setting [1] was 0.517 µM [rising, full curve].

Turning to `COc1cc(/C=N/O)cc(Br)c1OCc1ccc(Cl)cc1`, the cell number change is -5.16%. Under setting [2], the half-maximal activity concentration (AC50) is 0.231 µM [falling, full curve, poor fit].

Consider `Cc1c(-c2ccccc2)[n+](=O)c2c(n1[O-])CCCCC2`, for which the cell number change came out at 16.7%. Also, the AC50 under setting [2] is 3.26 µM [rising, single point].

Regarding `COc1ccc(/C=C/C(=O)c2ccccn2)cc1`, the cell number change is -2.87%. Besides, under setting [1], the concentration at half-maximal activity (AC50) is 0.82 µM [falling, full curve].

On to `COc1ccccc1N1CCN(/N=C/c2ccc(Cl)c([N+](=O)[O-])c2)CC1`, for which the cell number change was -34.5%. Also, under setting [2], the AC50 is 23.1 µM [falling, partial curve, poor fit]. Moreover, the AC50 under setting [1] is 0.58 µM [rising, single point].

Turning to `CCCNC(=O)c1ccccc1NC(=O)c1ccc2c(=O)n3c(nc2c1)CCC3`, the cell number change is -7.64%. For the same molecule, under setting [1], the AC50 was 16.4 µM [falling, single point].

As to `O=C(Cn1nc(-c2ccc(Cl)cc2)ccc1=O)NCC1CCCO1` (stereo not given), the cell number change stood at 38.4%. For the same molecule, under setting [2], the concentration at half-maximal activity (AC50) is 29.1 µM [rising, partial curve, poor fit].

Take `COc1ccccc1N1CCN(Cc2ccco2)CC1`: the cell number change is -18.8%. Further, the AC50 under setting [2] is 0.13 µM [falling, full curve, poor fit].

In the case of `CCc1ccc[n+](-c2nc3ccccc3nc2C(=C=[N-])C#N)c1`, the AC50 under setting [1] was 0.651 µM [falling, single point].

For `Cc1cnn(-c2nc(-c3ccccc3)cc(-c3ccccc3)n2)c1`, the cell number change was -28.4%. Also, the concentration at half-maximal activity (AC50) under setting [1] was 1.84 µM [falling, partial curve, poor fit].

On to `CC(OC(=O)c1ccccc1O)C(=O)Nc1cccc(Cl)c1` (stereo not given), for which the cell number change was 31.5%.

For `CC1CCCN(S(=O)(=O)c2ccc(S(=O)(=O)N3CCCN(Cc4ccccc4)C3)cc2)C1` (stereo not given), the cell number change is -8.17%.

For `CN1CCN(S(=O)(=O)c2cccc(S(=O)(=O)c3cccc(S(=O)(=O)N4CCN(C)CC4)c3)c2)CC1`, the cell number change is -74.6%. Also, the AC50 under setting [2] was 7.31 µM [falling, partial curve, poor fit]. Also, under setting [1], the AC50 is 4.61 µM [falling, partial curve].

Regarding `CCN(CC)CC(=O)Nc1ccc(-c2ccc(NC(=O)CN(CC)CC)c(OC)c2)cc1OC`, the AC50 under setting [1] is 0.146 µM [falling, full curve, poor fit].

With `O=C(C[n+]1cccc(CNC(=O)c2ccc(OC(F)F)cc2)c1)c1ccccc1`, the cell number change came out at 18.5%. Moreover, the half-maximal activity concentration (AC50) under setting [1] was 11.2 µM [rising, single point].

The record behind these values is PubChem BioAssay AID2685 (National Center for Advancing Translational Sciences (NCATS), 2010).
